These are yes or no findings as the source states them, for the method shown. Binding can be weak; no strength is given. For some assays here: Sequences can lack the tags named with a protein. For some assays here: Binding seen in cells or lysates may run through a third protein.

The target in assay [1] is T1, Rice dwarf virus (RDV) P2 protein, yeast two-hybrid fusion (Rice dwarf virus) (UniProt Q18MZ3).
T1 sequence: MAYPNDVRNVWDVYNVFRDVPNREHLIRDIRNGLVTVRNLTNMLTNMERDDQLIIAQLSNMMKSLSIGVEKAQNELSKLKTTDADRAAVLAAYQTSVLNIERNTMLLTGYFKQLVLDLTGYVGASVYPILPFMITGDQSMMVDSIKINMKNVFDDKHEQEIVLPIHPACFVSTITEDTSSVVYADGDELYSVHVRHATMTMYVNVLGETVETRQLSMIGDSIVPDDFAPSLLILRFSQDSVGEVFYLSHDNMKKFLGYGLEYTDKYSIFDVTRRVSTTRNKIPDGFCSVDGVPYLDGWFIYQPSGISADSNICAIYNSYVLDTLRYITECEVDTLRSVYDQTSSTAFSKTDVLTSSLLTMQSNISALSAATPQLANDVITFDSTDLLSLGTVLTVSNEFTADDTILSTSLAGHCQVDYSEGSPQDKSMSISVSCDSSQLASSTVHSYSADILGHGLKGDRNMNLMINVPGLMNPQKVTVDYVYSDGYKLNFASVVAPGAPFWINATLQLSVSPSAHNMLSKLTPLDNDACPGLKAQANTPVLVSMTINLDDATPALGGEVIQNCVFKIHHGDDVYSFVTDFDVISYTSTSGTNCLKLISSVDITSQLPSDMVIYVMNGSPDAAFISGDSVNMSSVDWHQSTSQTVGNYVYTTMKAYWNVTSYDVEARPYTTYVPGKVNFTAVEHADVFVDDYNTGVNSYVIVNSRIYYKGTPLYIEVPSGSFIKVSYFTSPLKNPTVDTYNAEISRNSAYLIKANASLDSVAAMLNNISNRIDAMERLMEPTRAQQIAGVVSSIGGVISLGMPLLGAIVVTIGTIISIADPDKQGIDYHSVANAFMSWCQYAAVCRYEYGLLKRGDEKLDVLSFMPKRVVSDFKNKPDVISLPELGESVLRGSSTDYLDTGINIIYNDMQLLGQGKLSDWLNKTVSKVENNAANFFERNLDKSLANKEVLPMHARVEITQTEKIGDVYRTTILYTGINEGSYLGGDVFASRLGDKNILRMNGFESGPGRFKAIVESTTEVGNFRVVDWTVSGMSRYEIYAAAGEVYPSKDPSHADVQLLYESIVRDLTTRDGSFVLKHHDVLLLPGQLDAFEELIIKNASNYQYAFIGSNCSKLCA
Nature of the assay: two-hybrid; yeast AH109 co-transformed with bait and prey; growth on SD-Leu/-Trp/-His/-Ade.

The target in assay [2] is T1, Rice dwarf virus (RDV) P2 protein, yeast two-hybrid fusion (Rice dwarf virus). Nature of the assay: two-hybrid; yeast; selection medium SD-L-W-H-Ade with or without 50 μM IAA (S2C, S3, S6B Figs; the medium of S2D Fig is not told).
In another assay the target is MBP-OsIAA10 (rice). Nature of the assay: pull-down; the same competition pull-down as a7, for the blocker MBP-P2 (1–786) and MBP-OsIAA10 (both purified from E. coli); both purified.
The target of assay [3] is OsIAA10 of the MST assays (rice). Nature of the assay: MST; as a10 with 2.5 μM MBP-P2 (1–786) added; both purified.
Another assay has as its target GST-OsIAA10 (rice). Nature of the assay: pull-down; competitive pull-down: 3 μg GST-OsIAA10 with 0, 3, 6 or 12 μg GST-P2(1–786) or 6 μg GST, incubated with immobilized MBP-OsTIR1 (6 μg), 4°C, 1 h; detected with anti-GST; both purified.
For assay [4], the target named is FLAG-OsIAA10 overexpressed in transgenic rice (rice). Nature of the assay: co-IP; RDV-infected FLAG-OsIAA10 overexpressing transgenic rice; IP buffer 50 mM Tris-HCl pH7.5, 150 mM NaCl, 0.1% NP-40, 5 mM DTT, 50 μM MG132, 4°C.
The target of assay [5] is FLAG-OsIAA10 transiently expressed in N. benthamiana (rice). Nature of the assay: co-IP; FLAG-OsIAA10 and HA-P2 transiently overexpressed in N. benthamiana leaves; IP buffer 50 mM Tris-HCl pH7.5, 150 mM NaCl, 0.1% NP-40, 5 mM DTT, 50 μM MG132, 4°C.

In the case of “OsIAA10 domain II (aa 91–141), yeast two-hybrid fusion (rice) (domain or fragment)”, in assay [1], the binding result is reported as “binds”. Same read-out and setting: then OsIAA1 (rice), with “no binding”. For the molecule “OsIAA10P116L, yeast two-hybrid fusion (rice)”, the binding result in assay [2] is given as “binds”.

B1: MBP-P2 (1–786) (domain or fragment, UniProt Q18MZ3 1-786)
chain: MAYPNDVRNVWDVYNVFRDVPNREHLIRDIRNGLVTVRNLTNMLTNMERDDQLIIAQLSNMMKSLSIGVEKAQNELSKLKTTDADRAAVLAAYQTSVLNIERNTMLLTGYFKQLVLDLTGYVGASVYPILPFMITGDQSMMVDSIKINMKNVFDDKHEQEIVLPIHPACFVSTITEDTSSVVYADGDELYSVHVRHATMTMYVNVLGETVETRQLSMIGDSIVPDDFAPSLLILRFSQDSVGEVFYLSHDNMKKFLGYGLEYTDKYSIFDVTRRVSTTRNKIPDGFCSVDGVPYLDGWFIYQPSGISADSNICAIYNSYVLDTLRYITECEVDTLRSVYDQTSSTAFSKTDVLTSSLLTMQSNISALSAATPQLANDVITFDSTDLLSLGTVLTVSNEFTADDTILSTSLAGHCQVDYSEGSPQDKSMSISVSCDSSQLASSTVHSYSADILGHGLKGDRNMNLMINVPGLMNPQKVTVDYVYSDGYKLNFASVVAPGAPFWINATLQLSVSPSAHNMLSKLTPLDNDACPGLKAQANTPVLVSMTINLDDATPALGGEVIQNCVFKIHHGDDVYSFVTDFDVISYTSTSGTNCLKLISSVDITSQLPSDMVIYVMNGSPDAAFISGDSVNMSSVDWHQSTSQTVGNYVYTTMKAYWNVTSYDVEARPYTTYVPGKVNFTAVEHADVFVDDYNTGVNSYVIVNSRIYYKGTPLYIEVPSGSFIKVSYFTSPLKNPTVDTYNAEISRNSAYLIKANASLDSVAAMLNNISNRIDAMERLMEPTRAQQ
As for B1, the binding entry (with MBP-OsIAA10 (rice); in assay [3]) was “binds” throughout.

B2: GST-P2 (1–786) (domain or fragment, UniProt Q18MZ3 1-786)
chain: MAYPNDVRNVWDVYNVFRDVPNREHLIRDIRNGLVTVRNLTNMLTNMERDDQLIIAQLSNMMKSLSIGVEKAQNELSKLKTTDADRAAVLAAYQTSVLNIERNTMLLTGYFKQLVLDLTGYVGASVYPILPFMITGDQSMMVDSIKINMKNVFDDKHEQEIVLPIHPACFVSTITEDTSSVVYADGDELYSVHVRHATMTMYVNVLGETVETRQLSMIGDSIVPDDFAPSLLILRFSQDSVGEVFYLSHDNMKKFLGYGLEYTDKYSIFDVTRRVSTTRNKIPDGFCSVDGVPYLDGWFIYQPSGISADSNICAIYNSYVLDTLRYITECEVDTLRSVYDQTSSTAFSKTDVLTSSLLTMQSNISALSAATPQLANDVITFDSTDLLSLGTVLTVSNEFTADDTILSTSLAGHCQVDYSEGSPQDKSMSISVSCDSSQLASSTVHSYSADILGHGLKGDRNMNLMINVPGLMNPQKVTVDYVYSDGYKLNFASVVAPGAPFWINATLQLSVSPSAHNMLSKLTPLDNDACPGLKAQANTPVLVSMTINLDDATPALGGEVIQNCVFKIHHGDDVYSFVTDFDVISYTSTSGTNCLKLISSVDITSQLPSDMVIYVMNGSPDAAFISGDSVNMSSVDWHQSTSQTVGNYVYTTMKAYWNVTSYDVEARPYTTYVPGKVNFTAVEHADVFVDDYNTGVNSYVIVNSRIYYKGTPLYIEVPSGSFIKVSYFTSPLKNPTVDTYNAEISRNSAYLIKANASLDSVAAMLNNISNRIDAMERLMEPTRAQQ
Turning to B2, in the assay with GST-OsIAA10 (rice), the binding result is recorded as “binds”.

B3: RDV P2 in RDV-infected rice plants (protein, UniProt Q18MZ3 1-1116)
chain: MAYPNDVRNVWDVYNVFRDVPNREHLIRDIRNGLVTVRNLTNMLTNMERDDQLIIAQLSNMMKSLSIGVEKAQNELSKLKTTDADRAAVLAAYQTSVLNIERNTMLLTGYFKQLVLDLTGYVGASVYPILPFMITGDQSMMVDSIKINMKNVFDDKHEQEIVLPIHPACFVSTITEDTSSVVYADGDELYSVHVRHATMTMYVNVLGETVETRQLSMIGDSIVPDDFAPSLLILRFSQDSVGEVFYLSHDNMKKFLGYGLEYTDKYSIFDVTRRVSTTRNKIPDGFCSVDGVPYLDGWFIYQPSGISADSNICAIYNSYVLDTLRYITECEVDTLRSVYDQTSSTAFSKTDVLTSSLLTMQSNISALSAATPQLANDVITFDSTDLLSLGTVLTVSNEFTADDTILSTSLAGHCQVDYSEGSPQDKSMSISVSCDSSQLASSTVHSYSADILGHGLKGDRNMNLMINVPGLMNPQKVTVDYVYSDGYKLNFASVVAPGAPFWINATLQLSVSPSAHNMLSKLTPLDNDACPGLKAQANTPVLVSMTINLDDATPALGGEVIQNCVFKIHHGDDVYSFVTDFDVISYTSTSGTNCLKLISSVDITSQLPSDMVIYVMNGSPDAAFISGDSVNMSSVDWHQSTSQTVGNYVYTTMKAYWNVTSYDVEARPYTTYVPGKVNFTAVEHADVFVDDYNTGVNSYVIVNSRIYYKGTPLYIEVPSGSFIKVSYFTSPLKNPTVDTYNAEISRNSAYLIKANASLDSVAAMLNNISNRIDAMERLMEPTRAQQIAGVVSSIGGVISLGMPLLGAIVVTIGTIISIADPDKQGIDYHSVANAFMSWCQYAAVCRYEYGLLKRGDEKLDVLSFMPKRVVSDFKNKPDVISLPELGESVLRGSSTDYLDTGINIIYNDMQLLGQGKLSDWLNKTVSKVENNAANFFERNLDKSLANKEVLPMHARVEITQTEKIGDVYRTTILYTGINEGSYLGGDVFASRLGDKNILRMNGFESGPGRFKAIVESTTEVGNFRVVDWTVSGMSRYEIYAAAGEVYPSKDPSHADVQLLYESIVRDLTTRDGSFVLKHHDVLLLPGQLDAFEELIIKNASNYQYAFIGSNCSKLCA
For B3, in assay [4], the binding result was “binds”.

B4: HA-P2 transiently expressed in N. benthamiana (protein, UniProt Q18MZ3 1-1116)
chain: MAYPNDVRNVWDVYNVFRDVPNREHLIRDIRNGLVTVRNLTNMLTNMERDDQLIIAQLSNMMKSLSIGVEKAQNELSKLKTTDADRAAVLAAYQTSVLNIERNTMLLTGYFKQLVLDLTGYVGASVYPILPFMITGDQSMMVDSIKINMKNVFDDKHEQEIVLPIHPACFVSTITEDTSSVVYADGDELYSVHVRHATMTMYVNVLGETVETRQLSMIGDSIVPDDFAPSLLILRFSQDSVGEVFYLSHDNMKKFLGYGLEYTDKYSIFDVTRRVSTTRNKIPDGFCSVDGVPYLDGWFIYQPSGISADSNICAIYNSYVLDTLRYITECEVDTLRSVYDQTSSTAFSKTDVLTSSLLTMQSNISALSAATPQLANDVITFDSTDLLSLGTVLTVSNEFTADDTILSTSLAGHCQVDYSEGSPQDKSMSISVSCDSSQLASSTVHSYSADILGHGLKGDRNMNLMINVPGLMNPQKVTVDYVYSDGYKLNFASVVAPGAPFWINATLQLSVSPSAHNMLSKLTPLDNDACPGLKAQANTPVLVSMTINLDDATPALGGEVIQNCVFKIHHGDDVYSFVTDFDVISYTSTSGTNCLKLISSVDITSQLPSDMVIYVMNGSPDAAFISGDSVNMSSVDWHQSTSQTVGNYVYTTMKAYWNVTSYDVEARPYTTYVPGKVNFTAVEHADVFVDDYNTGVNSYVIVNSRIYYKGTPLYIEVPSGSFIKVSYFTSPLKNPTVDTYNAEISRNSAYLIKANASLDSVAAMLNNISNRIDAMERLMEPTRAQQIAGVVSSIGGVISLGMPLLGAIVVTIGTIISIADPDKQGIDYHSVANAFMSWCQYAAVCRYEYGLLKRGDEKLDVLSFMPKRVVSDFKNKPDVISLPELGESVLRGSSTDYLDTGINIIYNDMQLLGQGKLSDWLNKTVSKVENNAANFFERNLDKSLANKEVLPMHARVEITQTEKIGDVYRTTILYTGINEGSYLGGDVFASRLGDKNILRMNGFESGPGRFKAIVESTTEVGNFRVVDWTVSGMSRYEIYAAAGEVYPSKDPSHADVQLLYESIVRDLTTRDGSFVLKHHDVLLLPGQLDAFEELIIKNASNYQYAFIGSNCSKLCA
With B4, in assay [5], the binding entry is “binds”.

(Values after article PMC5015840.)
